The record followed here is PMC12062965, “Transposable Elements Drive Regulatory and Functional Innovation of F-box Genes”.

The chains behind the UniProt entries cited, without tags or fusion partners. Where a name states a change or a piece, a line headed by the entry shows the natural chain unless it says otherwise.
UniProt Q7JQ07: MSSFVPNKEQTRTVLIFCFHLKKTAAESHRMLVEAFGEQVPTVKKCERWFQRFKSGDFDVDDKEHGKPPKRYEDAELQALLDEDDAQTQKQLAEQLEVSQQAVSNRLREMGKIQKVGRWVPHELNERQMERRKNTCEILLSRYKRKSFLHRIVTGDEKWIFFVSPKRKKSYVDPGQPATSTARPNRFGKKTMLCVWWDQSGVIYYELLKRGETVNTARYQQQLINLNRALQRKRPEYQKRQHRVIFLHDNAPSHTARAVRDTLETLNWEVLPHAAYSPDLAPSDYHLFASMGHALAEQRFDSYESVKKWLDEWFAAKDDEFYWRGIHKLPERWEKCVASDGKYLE

Common to all, as to experiment: EMSA
(A gel shift assay detects complexes by their altered migration in electrophoresis.)

In data set [1] the target is T1, GST-FBXA-192 FL (Caenorhabditis elegans) (UniProt Q9XUX2).
T1 sequence (looked up): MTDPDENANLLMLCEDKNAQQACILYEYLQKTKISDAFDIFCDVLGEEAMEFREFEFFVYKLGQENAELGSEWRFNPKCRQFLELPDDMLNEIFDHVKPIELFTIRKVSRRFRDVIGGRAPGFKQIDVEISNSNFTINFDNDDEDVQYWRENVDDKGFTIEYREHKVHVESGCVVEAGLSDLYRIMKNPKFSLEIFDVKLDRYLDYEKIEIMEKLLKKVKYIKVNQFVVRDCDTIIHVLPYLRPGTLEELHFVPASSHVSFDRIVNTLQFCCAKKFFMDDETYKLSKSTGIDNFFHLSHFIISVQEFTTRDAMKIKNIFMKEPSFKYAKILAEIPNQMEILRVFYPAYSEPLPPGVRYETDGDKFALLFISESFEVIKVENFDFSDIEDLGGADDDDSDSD
The note with it: 50 mM Tris-HCl pH 7.5, 150 mM NaCl, 1 mM DTT, protease inhibitors, 2.5% glycerol, 77.3 nM DNA, 25 C 15 min; native 1.5% agarose gel in TBE at 4 C, SYBR Gold stain; recombinant protein; residues 1-401; protein details: N-terminal GST.

In data set [2] the target is T2, GST-FBXA-215 FL (Caenorhabditis elegans) (UniProt A0A8S4Q9N7).
T2 sequence (looked up): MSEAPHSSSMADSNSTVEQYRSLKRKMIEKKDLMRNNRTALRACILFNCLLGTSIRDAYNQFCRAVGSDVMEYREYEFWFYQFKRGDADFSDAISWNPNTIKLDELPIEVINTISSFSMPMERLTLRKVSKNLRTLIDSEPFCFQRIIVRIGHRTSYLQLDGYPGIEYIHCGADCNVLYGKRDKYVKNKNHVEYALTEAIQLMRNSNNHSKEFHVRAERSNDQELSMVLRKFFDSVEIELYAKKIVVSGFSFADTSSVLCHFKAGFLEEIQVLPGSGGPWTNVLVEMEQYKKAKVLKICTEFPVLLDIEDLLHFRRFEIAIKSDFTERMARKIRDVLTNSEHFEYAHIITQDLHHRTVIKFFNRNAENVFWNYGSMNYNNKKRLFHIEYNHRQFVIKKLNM
As to conditions: 50 mM Tris-HCl pH 7.5, 150 mM NaCl, 1 mM DTT, protease inhibitors, 2.5% glycerol, 77.3 nM DNA, 25 C 15 min; native 1.5% agarose gel in TBE at 4 C, SYBR Gold stain; recombinant protein; residues 1-401; protein details: N-terminal GST.

Data set [3] concerns the target GST-FBXA-215 HTH (Caenorhabditis elegans) (UniProt A0A8S4Q9N7). The note with it: 50 mM Tris-HCl pH 7.5, 150 mM NaCl, 1 mM DTT, protease inhibitors, 2.5% glycerol, 77.3 nM DNA, 25 C 15 min; native 1.5% agarose gel in TBE at 4 C, SYBR Gold stain; recombinant protein; protein details: N-terminal GST.
Data set [4] has as its target GST-FBXA-192 HTH (Caenorhabditis elegans) (UniProt Q9XUX2). As to conditions: 50 mM Tris-HCl pH 7.5, 150 mM NaCl, 1 mM DTT, protease inhibitors, 2.5% glycerol, 77.3 nM DNA, 25 C 15 min; native 1.5% agarose gel in TBE at 4 C, SYBR Gold stain; recombinant protein; protein details: N-terminal GST.
The target in data set [5] is GST-Mos1 double HTH (UniProt Q7JQ07). The note with it: 50 mM Tris-HCl pH 7.5, 150 mM NaCl, 1 mM DTT, protease inhibitors, 2.5% glycerol, 77.3 nM DNA, 25 C 15 min; native 1.5% agarose gel in TBE at 4 C, SYBR Gold stain; recombinant protein; protein details: N-terminal GST.

For some of these results: No signal at the amounts used counts as a negative. For some of these results: At least one verdict was read from the data and is not stated in words by the source. For some of these results: Where a protein sequence is shown, tags need not be part of it. For some of these results: Construct, isoform or probe ends are uncertain for at least one entry.

Consider “AGTACAAAAACTTATGGGACAACCTGATAAGTACAAAAACTTATGGGACAACCTGATA (double strand) [Mariner2-like TIR]”, for which the binding result in data set [1], in data set [2], in data set [3] and in data set [4] was “no binding” each time.
Turning to “AGTGGATATCTTTTTGGCCAGCACTGTAAGTGGATATCTTTTTGGCCAGCACTGTA (double strand) [Tc1 TIR]”, the binding result in data set [1], in data set [2], in data set [3] and in data set [4] was “no binding” each time.
In the case of “TACAGTGTGGGAAAGTTCTATAGGACCCCCCCTAATTTTACAGTGTGGGAAAGTTCTATAGGACCCCCCCTAATTT (double strand) [Tc3 TIR]”, the binding result in data set [1], in data set [2], in data set [3] and in data set [4] was “no binding” throughout.
Consider “TATTAGGTTGGTCAAAAAGTCTTTGCAAAATTTTATTAGGTTGGTCGAAAAGTCTTTGCAAAATTT (double strand) [Mariner3-like TIR]”, for which the binding result in data set [1], in data set [2], in data set [3] and in data set [4] was “no binding” in each case.
For “TTTCTTTTTCCACAAAATTTAACGTGTTTTTTGATTTAAAAAAAACGACATTTCATACTTGTACACCTGA (double strand) [Mos1 right TIR (IRR100)]”, the results for the binding result in data set [3], in data set [5] and in data set [4] were “no binding”, “binds” and “no binding”, respectively.
